Laboratory results taken from PMC9772882.

How the values were obtained:
[1] = target: T1, ameloblastin-FLAG fusion protein (full length ameloblastin with a C-terminal FLAG tag) (UniProt O55189); assay: co-IP; anti-FLAG agarose holds ameloblastin-FLAG, overnight, modified PBS with 2 mM CaCl2, 1 mM MgCl2, pH 4.0; Western blot with anti-CBP for amelogenin
T1 sequence: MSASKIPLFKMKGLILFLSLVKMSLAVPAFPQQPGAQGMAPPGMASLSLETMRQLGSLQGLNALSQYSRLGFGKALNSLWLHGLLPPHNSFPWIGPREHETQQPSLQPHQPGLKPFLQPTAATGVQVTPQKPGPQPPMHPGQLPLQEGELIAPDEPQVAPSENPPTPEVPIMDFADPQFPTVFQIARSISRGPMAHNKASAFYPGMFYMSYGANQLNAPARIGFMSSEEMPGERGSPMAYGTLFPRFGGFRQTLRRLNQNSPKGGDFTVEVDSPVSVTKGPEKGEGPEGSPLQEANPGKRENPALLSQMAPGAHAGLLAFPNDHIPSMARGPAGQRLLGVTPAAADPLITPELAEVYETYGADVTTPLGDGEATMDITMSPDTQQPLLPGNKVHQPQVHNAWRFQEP

[2] = target: T1, ameloblastin-FLAG fusion protein (full length ameloblastin with a C-terminal FLAG tag); assay: co-IP; anti-FLAG agarose holds ameloblastin-FLAG, overnight, modified PBS with 2 mM CaCl2, 1 mM MgCl2, pH 4.5; Western blot with anti-CBP for amelogenin
[3] = target: CBP-SBP-amelogenin fusion protein (amelogenin N-terminal 92 amino acids, N92) (mouse); assay: pull-down; streptavidin sepharose holds CBP-SBP-amelogenin N92, overnight, modified PBS with 2 mM CaCl2, 1 mM MgCl2, pH 4.5; Western blot with anti-FLAG for ameloblastin
[4] = target: CBP-SBP-amelogenin fusion protein (amelogenin N-terminal 92 amino acids, N92) (mouse); assay: pull-down; streptavidin sepharose holds CBP-SBP-amelogenin N92, overnight, modified PBS with 2 mM CaCl2, 1 mM MgCl2, pH 4.0; Western blot with anti-FLAG for ameloblastin

- binding [1]: binds
- binding [2]: binds
Molecule: CBP-SBP-amelogenin fusion protein (amelogenin N-terminal 92 amino acids, N92) (mouse) (domain or fragment)

- binding [3]: binds
- binding [4]: binds
B1: ameloblastin-FLAG fusion protein (full length ameloblastin with a C-terminal FLAG tag) (protein, UniProt O55189 1-407)
chain: T1 sequence

Results are given in words; binding and its absence hold for the method and conditions named. Binding seen in cells or lysates may run through a third protein. A result given as binding can be weak or reduced; the word gives no strength. Sequences can lack the tags named with a protein. Each block holds one molecule with its values, some of them ahead of it.
